The values that follow come from PMC10603155.

Results are given in words; binding and its absence hold for the method and conditions named. Binding seen in cells or lysates may run through a third protein.

In the experiment the target is EGFP fused with HVD of nsP3 of ONNV-ΔFHL1 (o'nyong-nyong virus). Put plainly: pull-down.

B1: Four-and-a-half LIM domain protein 1 (protein, UniProt Q13642 1-323)
chain: MAEKFDCHYCRDPLQGKKYVQKDGHHCCLKCFDKFCANTCVECRKPIGADSKEVHYKNRFWHDTCFRCAKCLHPLANETFVAKDNKILCNKCTTREDSPKCKGCFKAIVAGDQNVEYKGTVWHKDCFTCSNCKQVIGTGSFFPKGEDFYCVTCHETKFAKHCVKCNKAITSGGITYQDQPWHADCFVCVTCSKKLAGQRFTAVEDQYYCVDCYKNFVAKKCAGCKNPITGKRTVSRVSHPVSKARKPPVCHGKRLPLTLFPSANLRGRHPGGERTCPSWVVVLYRKNRSLAAPRGPGLVKAPVWWPMKDNPGTTTASTAKNAP
Consider B1, for which the binding result was “no binding”.
